{
  "source": "patent US10624946B2",
  "about": "“Treating liver diseases” (Mayo Foundation for Medical Education and Research, priority 2005, dated 2020)",
  "system": "cAMP concentration in bile ducts from normal and PCK rats",
  "assay": "cAMP concentration in freshly isolated bile ducts, with or without forskolin (Example 2)",
  "assay_type": "cell-based, rat",
  "conditions": "forskolin 10^−7 M for 15 min",
  "note": "At least one structure is not confirmed: it was looked up by name or label, or the drawing left a doubt.",
  "data": [
    {"compound": "C=C[C@@]1(C)CC(=O)[C@]2(O)[C@@]3(C)[C@@H](O)CCC(C)(C)[C@@H]3[C@H](O)[C@H](OC(C)=O)[C@@]2(C)O1", "note": "[forskolin]", "values": [
      {"measurement": "cAMP concentration", "value": "elevated"}
    ]}
  ]
}
